PubChem BioAssay AID493014 (National Center for Advancing Translational Sciences (NCATS), 2011)
In all, about 340,000 compounds went through this assay and about 170 (0.05%) were called active. The inconclusive results got no clear call from the source; some entries with a clear call stand among them for comparison. Calls follow the shape of the dose curve; as a rule, active = well fitted inhibition curve with a large enough effect in the signal ratio, with a control signal flat (not every such curve was filed as active); inconclusive = small, poorly fitted or top-dose-only effect, or effect the other way, or a change in a side signal; inactive = flat fitted curve, though single readings scatter; the % refers to the signal ratio. Potencies of inconclusive entries are doubtful fits and often do not repeat.

Assay: qHTS Assay to Find Inhibitors of Chronic Active B-Cell Receptor Signaling;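 as to activity change, negative = inhibition: plate controls were basal doxycycline-induced cells for no effect and cells given 10 µM MG132 for full effect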
Conditions: ABC-DLBCL IkBa-CBG/CBR reporter, luminescence ratio (green luciferase fused to IkBa over red control in TMD8 lymphoma cells), 4 h; activity change, negative = inhibition: at 46.1 µM (top of the series)
Procedure, shortened: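 Compounds up to 46 uM were incubated four hours with TMD8 cells whose green CBG68 luciferase is fused to IkappaBalpha; red CBR luminescence normalised the signal, and concentration-effect curves were fitted to fusion, red and ratio data.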
Potency is read from the fitted curve at half-maximal effect.

| SMILES | activity change, negative = inhibition | Potency |
| --- | --- | --- |
| CN1C(=O)c2ccccc2Sc2ccc(NC(=O)COc3ccc(Cl)cc3)cc21 | inconclusive: -2.97% | – |
| Cc1ccc2nc(-c3ccc(NC(=O)COC(=O)c4cncc(Br)c4)cc3)sc2c1 | inconclusive: 0.524% | – |
| CCCCC(=O)Nc1cccc(-c2cn3ccccc3n2)c1 | inconclusive: 6.61% | – |
| CCOC(=O)c1c(N)c(C#N)c2n1CCCCC2 | inactive: 1.82% | – |
| COc1ccc(-c2cn3cccnc3n2)cc1Br | inconclusive: 0.316% | – |
| Cc1nn(-c2ccccc2)c2sc(C(=O)N3CCOCC3)cc12 | inconclusive: 13.9% | – |
| CCOCCCNC(=O)C(NC(=O)c1ccccc1O)c1ccc(Cl)cc1 (stereo not given) | – | inconclusive: 4.47 µM [falling, single point] |
| O=C(CSC1CN(C(c2ccccc2)c2ccccc2)C1)N/N=C/c1ccc(Cl)cc1Cl | – | inconclusive: 1.41 µM [falling, full curve, poor fit] |
| NC(=O)c1ccc(-c2nnc(Nc3ccc(S(N)(=O)=O)cc3)c3ccccc23)cc1 | inconclusive: -14% | – |
| O=S(=O)(CC(CN1CCCC1)N1CCCC1)c1ccc2ccccc2c1 (stereo not given) | inconclusive: -3.39% | – |
| CCC(=O)NCCc1nc2cc(NC(=O)c3ccccc3OC)ccc2n1C | – | inconclusive: 13 µM [falling, partial curve, poor fit] |
| COC(=O)c1cc(S(=O)(=O)N(C)c2ccc(C)c(C)c2)c[nH]1 | inconclusive: -2.85% | – |
| O=C(Nc1cccnc1)c1cc2cc(Br)ccc2o1 | – | inconclusive: 35.5 µM [rising, single point] |
| Cn1nc(C(=O)Nc2cccc(Cl)c2)cc1C(=O)Nc1cccc(Cl)c1 | inconclusive: 0.418% | – |
| CC(=O)N(C1=C(N2CCOCC2)C(=O)c2ccccc2C1=O)c1ccc(C(=O)O)cc1 | – | inconclusive: 22.4 µM [falling, single point] |
| COc1ccc(NC(=O)c2cc(C)on2)cc1OC | inconclusive: 4.92% | – |
| O=C(NCCc1ccccc1)Oc1ccc(Cl)cc1 | – | inconclusive: 25.1 µM [falling, single point] |
| c1ccc(OCCOCCN2CCN(C(c3ccccc3)c3ccccc3)CC2)cc1 | inconclusive: -5.21% | – |
| S=C(NCC1CCCO1)N1CCN(c2ccccc2)CC1 (stereo not given) | inconclusive: 8.01% | – |
| NC(=O)C1(N2CCCCC2)CCN(c2nc(-c3ccccc3)cs2)CC1 | inconclusive: 6.64% | – |
| CC1(C)C2CCC(C2)C1(C)N=C1OC(CCl)CS1 (stereo not given) | inconclusive: 4.62% | – |
| COc1ccc(C(=O)c2c(O)cc(-c3ccc(OC)cc3)oc2=O)cc1 | inconclusive: -15.1% | – |
| Cc1ccccc1N1CCN(C(=O)CN2C(=O)c3ccccc3C2=O)CC1 | inconclusive: 10.8% | – |
| COc1cc(/C=C2\SC(=S)N(N3CCOCC3)C2=O)ccc1O | inactive: -9.21% | – |
| CCOC(=O)c1cc(-c2ccc(OC)cc2)nc2c1c(C)nn2CCC(N)=S | – | inconclusive: 12.6 µM [falling, single point] |
| COc1ccccc1C(=O)C1CCCN(C(=O)c2ccc3c(c2)OCCO3)C1 (stereo not given) | inconclusive: 26.4% | – |
| COc1ccc(C)c2sc(=NC(=O)c3cccc(N4C(=O)CCC4=O)c3)n(C)c12 | inconclusive: -26.9% | – |

| SMILES | activity change, negative = inhibition | Potency |
| --- | --- | --- |
| CC(C)CC(O)C1CCN(C(=O)CCc2nnc(-c3ccccc3)o2)CC1 (stereo not given) | inactive: 1.92% | – |
| COC(=O)CCCC1=CC2=C(c3ccccc3)C(=O)C(C)(OC(=O)C3CCCC3)C(=O)C2=CN1c1ccccc1 (stereo not given) | inconclusive: 12.3% | – |
| CC1Cc2ccccc2N1C(=O)Cn1cnc2ccccc21 (stereo not given) | inactive: 0.443% | – |
| OCCC1CCCCN1CC(O)COCc1ccc(Cl)cc1 (stereo not given) | inconclusive: 3.62% | – |
| CC(C)[C@H](NC(=O)c1ccccc1F)C(=O)OCC(=O)NC1CC1 | inconclusive: 2.77% | – |
| COC(=O)c1ccc2c(c1)NC(=O)C(N(CC(C)C)CC(C)C)S2 (stereo not given) | – | inconclusive: 39.8 µM [falling, partial curve, poor fit] |
| CCOC(=O)C1CCN(C(C)=C2C(=O)c3ccccc3C2=O)CC1 | inconclusive: 6.55% | – |
| CCCn1c(SCC(=O)Nc2ccccc2-c2ccccc2)nnc1-c1ccoc1C | inactive: 1.26% | – |
| Cc1onc(-c2ccccc2)c1C(=O)N1CCN(Cc2ccccc2)CC1 | inactive: -4.8% | – |
| COc1ccc(CNC(=O)C(=O)NCC2CCCO2)cc1 (stereo not given) | inactive: -0.109% | – |
| CCOC(=O)CSc1nc(C2CC2)cc(-c2ccc(F)cc2)c1C#N | inactive: 0.285% | – |
| Cn1c2c(c(=O)n(C)c1=O)NC1(N2)C(=O)Nc2ccccc21 (stereo not given) | inconclusive: 5.22% | – |
| Cc1cc(/C=C(\C#N)C(=O)O)c(C)n1-c1ccc(Br)cc1 | inconclusive: 6.49% | – |
| O=C(NNC(=O)c1ccc(Br)s1)c1csc(N2CCOCC2)n1 | inconclusive: -7.7% | – |
| CCN1C(=O)C(CC(=O)Nc2ccc(OC)cc2)N(CCc2ccc(F)cc2)C1=S (stereo not given) | inconclusive: 2.12% | – |
| COc1cccc(CN2CCN(C(=O)c3cccc4ccccc34)CC2)c1OC | – | inconclusive: 6.51 µM [falling, single point] |
| Cc1ccc(NC(=O)c2ncn(CC(=O)NCc3ccc4c(c3)OCO4)n2)cc1C | inactive: 2.05% | – |
| Cc1cc(Cl)ccc1OCCNC(=S)NC(=O)c1cccnc1 | inconclusive: 7.61% | – |
| O=C(CSc1ccc2ccccc2c1)N1CCN(c2ccc(O)cc2)CC1 | inconclusive: 6.16% | – |
| Cn1cccc1C(=O)NNC(=O)COc1ccc(C#N)cc1 | inconclusive: -5.74% | – |
| CCC(=O)c1ccc(OCC(O)CN2CCN(S(=O)(=O)N3CCCCC3)CC2)cc1 (stereo not given) | inactive: -9.2% | – |
| Cc1cc(C)cc(NC(=O)NC(C)C2CCCO2)c1 (stereo not given) | inconclusive: 0.74% | – |
| COc1ccc(C(=O)c2ccc(Cl)cc2)cc1 | inconclusive: 2.84% | – |
| Cc1ccc(C(=O)Nc2cc(Cl)ccc2-n2cncn2)s1 | – | inconclusive: 16.4 µM [rising, partial curve, poor fit] |
| O=S(=O)(NNc1ccc(Cl)nn1)c1ccc(F)cc1 | inactive: -2.27% | – |
| O=C(Cn1c(=O)oc2ccccc21)Nc1ccccc1N1CCOCC1 | inconclusive: -24.7% | – |
| O=C(c1cccc(S(=O)(=O)NCc2ccccc2)c1)N1CCN(c2cccc(C(F)(F)F)c2)CC1 | – | inconclusive: 14.1 µM [falling, partial curve, poor fit] |

Complete entries, looked up by structure. Values in the order: activity change, negative = inhibition | Potency
COC(=O)CCCC1=CC2=C(c3ccccc3)C(=O)C(C)(OC(=O)C3CCCC3)C(=O)C2=CN1c1ccccc1 (stereo not given) as listed: inconclusive: 12.3% | –
Cc1cc(/C=C(\C#N)C(=O)O)c(C)n1-c1ccc(Br)cc1 as listed: inconclusive: 6.49% | –

Grouped by structure, those above with a thiophene ring, fused or not (three)

| SMILES | activity change, negative = inhibition | Potency |
| --- | --- | --- |
| Cc1nn(-c2ccccc2)c2sc(C(=O)N3CCOCC3)cc12 | inconclusive: 13.9% | – |
| O=C(NNC(=O)c1ccc(Br)s1)c1csc(N2CCOCC2)n1 | inconclusive: -7.7% | – |
| Cc1ccc(C(=O)Nc2cc(Cl)ccc2-n2cncn2)s1 | – | inconclusive: 16.4 µM [rising, partial curve, poor fit] |

(list continues)

| SMILES | activity change, negative = inhibition | Potency |
| --- | --- | --- |
| Nc1ccc(CSc2ccc(Cl)cc2)cc1 | – | inconclusive: 11.2 µM [falling, partial curve] |
| O=C(Oc1coc(CSc2nnc(NC(=O)C3CC3)s2)cc1=O)c1ccccc1 | inconclusive: 2.78% | – |
| CC1=NN(Cc2ccccc2)C(=O)/C1=C/c1ccc(N(C)C)cc1 | – | inconclusive: 3.98 µM [falling, single point] |
| O=C(COc1ccc(F)cc1F)Nc1cccnc1 | inconclusive: -1.14% | – |
| O=C(/C=C/c1ccc(Cl)cc1)Nn1c(-c2cccs2)nc2ccccc2c1=O | – | inconclusive: 0.651 µM [falling, partial curve, poor fit] |
| O=C(O)c1cc(O)c2c(c1)[C@H]([C@H]1c3cc(C(=O)O)cc(O)c3C(=O)c3c(O[C@@H]4O[C@H](CO)[C@@H](O)[C@H](O)[C@H]4O)cccc31)c1cccc(OC3O[C@H](CO)[C@@H](O)[C@H](O)[C@H]3O)c1C2=O (stereo not given in full) | inactive: 5.06% | – |
| CCOC(=O)Cc1csc(NC(=O)CSc2nnc(-c3ccc(C)cc3)o2)n1 | inconclusive: 9.57% | – |
| Cc1cc(C)cc(NC(=O)C2(c3ccccc3)CC2(Cl)Cl)c1 (stereo not given) | – | inconclusive: 11.2 µM [rising, partial curve, poor fit] |
| COc1cccc(NC(=O)CSc2nn3c(=O)c(C)nnc3s2)c1 | inactive: 8.65% | – |
| CCCSc1nnc(-c2c[nH]c3ccccc23)n1CC | inconclusive: 16.1% | – |
| CC(C)=CCN1CCN(CCCc2ccccc2)CC1CCO (stereo not given) | inconclusive: 4.44% | – |
| COc1ccccc1/C=C/C(=O)Oc1cccc2cccnc12 | – | inconclusive: 22.4 µM [falling, single point] |
| CCOc1ccccc1NC(=O)CSc1nncc2ccccc12 | – | inconclusive: 12.6 µM [falling, partial curve] |
| Cc1ccc(-c2csc(NC(=O)CSc3nc(C)cs3)n2)cc1 | inconclusive: 6.54% | – |
| C=CCn1c(CSCc2ccccc2)nnc1SCC(=O)NCc1ccccc1 | inconclusive: -10.5% | – |
| CCCCN1CC(=O)N2[C@H]3c4cc(Br)ccc4OC[C@@H]3[C@H](C(=O)OCC)[C@]2(C)C1=O | inconclusive: -0.845% | – |
| CC(=O)Oc1ccccc1C(=O)Oc1ccc(/C=N/n2cnnc2)cc1 | inconclusive: -1.56% | – |
| Cc1ccc(N2C(N)=C(C#N)C(c3cccs3)C3=C2CC(C)(C)CC3=O)cc1 (stereo not given) | inconclusive: 8.97% | – |
| O=[N+]([O-])c1ccc(CSc2nnc(Cc3ccccc3)n2-c2ccc(F)cc2)cc1 | inconclusive: 0.931% | – |
| N#C/C(=C\c1ccc(N2CCOCC2)cc1)c1ccccc1 | – | inconclusive: 32.6 µM [falling, partial curve, poor fit] |
| CN(CC(=O)Nc1ccc(F)cc1)c1ccc(S(=O)(=O)N2CCCCC2)cc1[N+](=O)[O-] | inconclusive: -9.29% | – |
| CCOC(=O)C(=O)Nc1sc(C(=O)N2CCOCC2)c(C)c1C#N | inconclusive: 0.668% | – |
| C#CCNC(=O)C1=C[C@H](c2cn(C(C)=O)c3ccccc23)C[C@H](OCc2ccc(CO)cc2)O1 | inconclusive: 0.0545% | – |
| CC(C)COc1cccc(C(=O)N2CCN(C(=O)c3ccco3)CC2)c1 | inactive: -0.198% | – |
| Cc1nc2nc(-c3ccccc3)cc(=O)n2[nH]1 | – | inconclusive: 20.6 µM [falling, partial curve] |
| COc1ccc(OC)c2sc(NC(=O)C(C)C)nc12 | – | inconclusive: 1.03 µM [rising, full curve] |
